Test results from patent US20200341000A1, “METHOD OF SCREENING COMPOUNDS FOR TREATING CNS DISORDERS” (SAGE THERAPEUTICS, INC., priority 2017, published 2020).

Test system: plasma membrane GABAARs containing the α4 and β3 subunits
Assay: Biotinylation, surface/total GABAAR subunits in hippocampal slices of WT mice
Format: cell-based
Conditions: 100 nM
Experimental: Hippocampi were dissected out of acute slices from 8 to 12 week old C57/B16 mice and lysed with phosphate buffer including: 20 mM Tris-HCl, 150 mM NaCl, 5 mM EDTA, 10 mM NaF, 2 mM Na3VO4, 10 mM pyrophosphate, 0.1% SDS and 1% Triton after drug treatment. The β3 subunit was isolated using immunoprecipitation with β3 antibodies, after correction for protein content and the specific activity of labeling. Results were attained by SDS/PAGE followed by autoradiography (Abramian et al., 2010). For biotinylation experiments hippocampi were dissected out of acute slices from 8 to 12 week old C57/B16 mice and incubated in artificial cerebrospinal fluid (ACSF) described above at 30° C. for 1 h for recovery before experimentation. Slices were then placed on ice and incubated for 30 min with 1 mg/mL NHS-SS-biotin (Pierce). Excess biotin was removed by a 50 mM glycine quenching buffer, followed by washing of slices three times in ice-cold ACSF. The tissue was snap frozen on dry ice for 5 min, thawed at 4° C. and lysed. The lysates were solubilized with 2% Triton at 4° C. on a rotating wheel for 1 h. The insoluble material was removed by centrifugation, and 350-500 μg of protein lysate were incubated with NeutrAvidin beads (Pierce) for 18-24 h at 4° C. […] Blots were then quantified using the CCD-based ChemiDoc XRS ? system. […]

## CN1C(=O)CN=C(c2ccccc2)c2cc(Cl)ccc21 [diazepam]
  cell surface stability of the β3 subunit: did not affect
